The other results are listed elsewhere or left out. The main result of the screen is listed elsewhere. These columns were measured beside it and carry no call. Compounds called inactive in the main read-out are mostly missing here. Words in brackets tell the shape of the fitted curve; partial curves, single points and poor fits give uncertain potencies.
Assay: qHTS Assay to Find Inhibitors of Chronic Active B-Cell Receptor Signaling
Details: ABC-DLBCL IkBa-CBG/CBR reporter, luminescence ratio (green luciferase fused to IkBa over red control in TMD8 lymphoma cells), 4 h
How it was run: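 Doxycycline induced both beetle luciferases in TMD8 lymphoma cells; IKK-driven degradation limits the IkappaBalpha-fused green signal, while red luminescence normalises for cell number and nonspecific effects. Compounds tested up to 46 uM, 4 hrs.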

[1] = measured here: CBR red luminescence, cell number
[2] = measured here: IkBa-CBG green luminescence

Row | SMILES | AC50 [1] | AC50 [2]
1 | Brc1ccc(N=Nc2ccc3ccccc3n2)cc1 | 2.51 µM [falling, full curve, poor fit] | 
2 | CC(C)N(Cc1ccccc1)C(=O)COC(=O)/C=C/c1cnc2ccccc2n1 | 1.26 µM [falling, full curve, poor fit] | 
3 | CC(C)OC(=O)CSc1nnnn1-c1ccc2c(c1)OCCO2 | 10.3 µM [rising, partial curve] | 
4 | Cc1ccc(C)c(NC(=O)c2ccccn2)c1 | 20.6 µM [rising, single point] | 
5 | Cc1ccc(CSCC(Nc2ccc(C(=O)O)cc2[N+](=O)[O-])C(=O)O)cc1 (stereo not drawn) | 23.1 µM [falling, single point] | 
6 | COc1cc(C(=O)N2CCN(Cc3ccccn3)CC2)cc(OC)c1OC | 0.891 µM [rising, full curve, poor fit] | 
7 | COc1cc(OC)c(OC)cc1CN(C)CCc1ccccn1 | 4.11 µM [falling, single point] | 
8 | Cc1ccc(SC[C@H](Cc2ccccc2)N2CCN(CC(C)C)CCC2=O)cc1 | 2.24 µM [rising, partial curve, poor fit] | 
9 | CS(=O)(=O)c1ccc(C(=O)Nc2cccc(-c3nc4ccccc4[nH]3)c2)cc1 | 35.5 µM [falling, single point] | 
10 | CCOC(=O)Cc1cc(=O)[nH]c(Nc2nc3ccccc3o2)n1 | 35.5 µM [falling, single point] | 
11 | CC(C)CCNC(=O)NC(=O)CSc1nnc(-c2ccccc2F)n1N | 4.61 µM [falling, single point] | 4.61 µM [rising, partial curve, poor fit]
12 | CN1CCCN(S(=O)(=O)c2ccccc2)c2nc3ccccc3nc21 | 29.1 µM [falling, single point] | 
13 | Cc1ccc(NC(=O)Nc2cccc([N+](=O)[O-])c2)nc1 | 2 µM [rising, full curve, poor fit] | 
14 | O=C(N/N=C/c1coc2ccccc2c1=O)c1cc(O)cc(O)c1 | 10 µM [falling, partial curve, poor fit] | 
15 | Cc1noc(C)c1COc1ccccc1C(=O)NCCc1ccccc1 | 6.51 µM [rising, single point] | 
16 | O=C(c1nnsc1S(=O)(=O)c1ccc(Cl)cc1)N1CCOCC1 | 7.08 µM [falling, full curve] | 7.94 µM [rising, partial curve, poor fit]
17 | COc1ccc(Cn2nnnc2C(CC(C)C)N2CCN(c3ccccc3)CC2)cc1 (stereo not drawn) | 4.47 µM [falling, full curve] | 
18 | COc1ccc2c(c1)c(C(=O)OCCN(C)C)c(C)n2C | 7.31 µM [rising, partial curve, poor fit] | 
19 | Cc1cccc2sc(NC(=O)CSCc3ccccc3)nc12 | 11.6 µM [falling, partial curve, poor fit] | 
20 | CNC(=O)c1ccsc1NC(=O)c1ccc(S(=O)(=O)N2CCc3ccccc32)cc1 | 32.6 µM [falling, partial curve, poor fit] | 25.9 µM [rising, partial curve, poor fit]
21 | COc1ccc(S(=O)(=O)CC(=O)c2cc3cc(Br)ccc3oc2=O)cc1 | 28.2 µM [falling, single point] | 

Row | SMILES | AC50 [1] | AC50 [2]
22 | COc1ccc(NC(=O)c2ccccc2C)cc1 | 10 µM [falling, partial curve] | 
23 | Cc1cc(NC(=O)COC(=O)c2ccccc2NCCO)no1 | 16.4 µM [falling, single point] | 
24 | Cc1noc(C)c1COC(=O)c1ccc(F)c(S(=O)(=O)N2CCCCC2)c1 | 10 µM [falling, partial curve] | 
25 | COc1ccc(-c2onc3ccc(Cl)cc23)cc1 | 0.259 µM [rising, full curve, poor fit] | 
26 | O=C1CN(C(=O)c2ccc(Br)o2)C(c2ccc(F)cc2)c2cc(F)ccc2N1 (stereo not drawn) | 20.6 µM [falling, single point] | 
27 | O=C(Nc1nc(=O)[nH]s1)c1ccccc1 | 35.5 µM [falling, single point] | 
28 | O=C(Nc1ccc2c(c1)COC2=O)c1ccc(Cl)c(Cl)c1 | 0.112 µM [rising, full curve, poor fit] | 
29 | COc1ccc(S(=O)(=O)N2CCOCC2)c(C)c1C | 20.6 µM [rising, partial curve, poor fit] | 8.2 µM [falling, partial curve, poor fit]
30 | Cc1ccc(N(CC(=O)N/N=C/c2ccc(OC3CSC3)cc2)S(=O)(=O)c2ccccc2)c(C)c1 | 18.4 µM [rising, partial curve, poor fit] | 
31 | OCCN1CCN(c2nc(-c3ccccc3)nc3c2oc2ccccc23)CC1 | 35.5 µM [falling, single point] | 
32 | O=C(Nc1ccc(Br)cn1)c1ccc2ccccc2c1 | 10 µM [falling, partial curve, poor fit] | 
33 | CSc1nc(C)c(CCOC(=O)c2ccccc2)c(=O)[nH]1 | 1.41 µM [rising, full curve, poor fit] | 
34 | CCOc1ccc2nc(-c3ccccc3)[nH]c2c1 | 10 µM [falling, partial curve] | 
35 | COC(=O)c1ccc(COc2ccccc2/C=N/NS(=O)(=O)c2ccccc2)cc1 |  | 35.5 µM [falling, single point]
36 | Cn1c(CCN2CCCCC2)nc2cc(NS(=O)(=O)c3ccc(F)cc3)ccc21 | 22.4 µM [falling, single point] | 
37 | Cc1cccc(C(=O)Nc2oc(-c3ccccc3)cc2C#N)c1 | 15.8 µM [rising, partial curve, poor fit] | 
38 | CC(=O)c1c(C)[nH]c(=S)c(C#N)c1-c1ccc(Cl)cc1 | 5.01 µM [rising, partial curve, poor fit] | 
39 | Cc1nnc(SCC(=O)NC(C)(C)C)n1CCc1ccccc1 | 13 µM [rising, partial curve, poor fit] | 
40 | CCN(CC)C(=O)c1sc2nc(N3CCOCC3)c3c(c2c1N)CCCC3 | 29.1 µM [falling, single point] | 
41 | O=C(CC(Nc1cccc(Cl)c1Cl)C(=O)OCC(=O)c1cccs1)c1ccccc1 (stereo not drawn) | 1.46 µM [rising, partial curve] | 
42 | CC1=NN(c2ccccc2)C(=O)/C1=C\N(O)c1ccccc1 | 15.8 µM [falling, single point] | 

Pulled by compound from above (3):
Row | SMILES | AC50 [1] | AC50 [2]
35 | COC(=O)c1ccc(COc2ccccc2/C=N/NS(=O)(=O)c2ccccc2)cc1 |  | 35.5 µM [falling, single point]
27 | O=C(Nc1nc(=O)[nH]s1)c1ccccc1 | 35.5 µM [falling, single point] | 
31 | OCCN1CCN(c2nc(-c3ccccc3)nc3c2oc2ccccc23)CC1 | 35.5 µM [falling, single point] | 

Remaining list, next part

Row | SMILES | AC50 [1] | AC50 [2]
43 | CCCC(=O)NC(=S)Nc1ccc(Cl)cn1 | 35.5 µM [falling, single point] | 35.5 µM [falling, single point]
44 | O=C(OCc1c(-c2ccccc2)ncc2ccccc12)c1ccccc1C(F)(F)F | 29.1 µM [falling, single point] | 
45 | CC1CCCN(c2nc(NCc3ccco3)nc(N)c2[N+](=O)[O-])C1 (stereo not drawn) | 5.8 µM [rising, single point] | 
46 | Cc1cc(C)c(OCCCCCn2ccnc2)c(C)c1 | 35.5 µM [rising, single point] | 
47 | Cc1ccc(NC(=S)N(CCCN2CCOCC2)Cc2ccco2)cc1C | 35.5 µM [falling, single point] | 
48 | O=C(NCCCN1CCCC1)c1cc2c(Cl)nc3ccccc3c2s1 | 35.5 µM [falling, single point] | 
49 | C[C@H]1CN([C@@H](C)CO)C(=O)Cc2cc(NC(=O)C3CC3)ccc2O[C@H]1CN(C)Cc1ccc(Oc2ccccc2)cc1 | 23.1 µM [falling, single point] | 
50 | COc1ccccc1OCC(=O)Nc1sc2c(c1C(N)=O)CCC2 | 5.8 µM [falling, partial curve, poor fit] | 
51 | COc1cc(/C=C2\SC(=O)N(CC(=O)Nc3ccc(C)cc3)C2=O)cc(Cl)c1OCC(=O)O | 12.6 µM [rising, partial curve, poor fit] | 
52 | O=C(c1ccccc1)N1CCN(c2ncnc3sc4c(c23)CCC4)CC1 | 29.1 µM [falling, single point] | 
53 | O=C(c1ccccc1)c1ccc2ccccc2n1 | 6.51 µM [rising, partial curve] | 
54 | COc1ccc(C(=O)/C=C/c2ccc(-c3ccccc3)cc2)cc1CSCC(=O)O | 8.91 µM [falling, partial curve] | 
55 | c1ccc(Cn2nc(-c3ccccc3)nc2-c2ccccc2)cc1 | 13 µM [rising, partial curve, poor fit] | 
56 | CCCN(CCC)CCCNc1ccc(C(=O)Nc2cccc(OC)c2)cc1[N+](=O)[O-] | 3.55 µM [falling, full curve] | 
57 | COc1ccccc1C(c1nnnn1C(C)(C)C)N1CCCCCC1 (stereo not drawn) | 0.501 µM [falling, partial curve, poor fit] | 
58 | COc1cccc(OCCn2c(C)c(/C=N/n3cnnc3)c3ccccc32)c1 | 6.31 µM [rising, single point] | 
59 | O=C(O)CCCN=Cc1c(O)c2ccccc2oc1=O | 8.91 µM [falling, partial curve, poor fit] | 
60 | O=C1N=c2ccccc2=C1c1c(O)n(-c2cccc(F)c2)[nH]c1=O | 20.6 µM [falling, partial curve] | 
61 | N#C/C(=C/c1ccc(O)c(O)c1)C(=O)NCc1ccc(Cl)cc1 | 2.24 µM [falling, partial curve, poor fit] | 
62 | COc1ccc(CN(C)C(=O)C(Cc2ccccc2)NC(=O)c2ccccc2)c(OC)c1 (stereo not drawn) | 4.61 µM [falling, full curve, poor fit] | 
63 | COC(=O)Cc1[nH]nc2c1C1(CCSCC1)C(C#N)=C(N)O2 | 5.8 µM [falling, single point] | 
